No constants are given. Whether binding was seen depends on the method and setting. Some entries that bind do so weakly or less than the wild type.
Assays:
Experiment in all cases: two-hybrid
[1] = target: MDT-15-KIX (aa 1-124) (C. elegans) (UniProt Q21955)
[2] = target: MDT-15-NT (aa 1-338) (C. elegans) (UniProt Q21955)
[3] = target: MDT-15ΔCT (aa 1-598) (C. elegans) (UniProt Q21955)

Sequences of proteins named here, by UniProt entry; tags and fusion partners are left off. A change or cut given only in a name is not applied to a line headed by its entry. Residues count along the entry.
UniProt Q21955: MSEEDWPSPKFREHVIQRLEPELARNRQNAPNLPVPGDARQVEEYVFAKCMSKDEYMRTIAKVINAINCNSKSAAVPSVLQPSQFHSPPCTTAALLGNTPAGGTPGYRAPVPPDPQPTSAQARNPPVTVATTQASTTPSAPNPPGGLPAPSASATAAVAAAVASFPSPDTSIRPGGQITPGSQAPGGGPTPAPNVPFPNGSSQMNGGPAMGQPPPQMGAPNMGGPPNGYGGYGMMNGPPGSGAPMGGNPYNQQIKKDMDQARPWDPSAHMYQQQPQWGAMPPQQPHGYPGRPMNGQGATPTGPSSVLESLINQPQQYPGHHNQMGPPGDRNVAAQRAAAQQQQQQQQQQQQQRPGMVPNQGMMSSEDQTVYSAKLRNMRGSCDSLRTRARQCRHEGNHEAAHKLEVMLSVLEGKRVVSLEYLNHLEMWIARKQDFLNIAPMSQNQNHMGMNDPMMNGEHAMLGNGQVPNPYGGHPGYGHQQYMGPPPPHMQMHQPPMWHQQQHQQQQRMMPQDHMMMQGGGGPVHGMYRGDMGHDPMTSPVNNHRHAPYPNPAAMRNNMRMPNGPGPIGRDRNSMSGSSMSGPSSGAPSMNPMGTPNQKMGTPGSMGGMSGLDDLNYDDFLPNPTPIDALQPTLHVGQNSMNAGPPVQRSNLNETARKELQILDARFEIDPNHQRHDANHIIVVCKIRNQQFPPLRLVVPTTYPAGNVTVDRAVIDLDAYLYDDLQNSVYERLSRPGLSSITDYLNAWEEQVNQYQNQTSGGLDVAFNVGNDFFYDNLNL
MDT-15ΔCT (aa 1-598): residues 1-598 of Q21955
MDT-15-NT (aa 1-338): residues 1-338 of Q21955
MDT-15-KIX (aa 1-124): residues 1-124 of Q21955

Measured: binding

B1: NHR-10 (protein, UniProt P41999 1-395)
chain: MTGGGPSSNNSSQPEEVCLVCSDISTGYHYGVPSCNGCKTFFRRTIMKNQTFSCQFQGKCPVDKSIRCACRHCRFEKCLQVGMDRNAIQQNRDPIGYTKRTRRYPPIKKVEASDECSPAMVSENDRSEDNFLTLLSSTEQKCCALRLAEYMPSRTLIEAVVSDCLLTDEVFMAEHAILSPRHRVTSLRFANQSDYHYWHERDWFVMIEWAKTLPVFQSLPFTDKLALLRHSAITYPSLVHVFNSPDHGLDTIVFPDGAYFDRTPEPTRPLGFNKKKYQMLDQLLKPMRSMEIDMTEFAAFKAIFFLNPDADDVDSNAKKTLSDGRSAITNALYRYMVKKKGAEDAGDRFGRLLLLGTVLATMAVEMKEAVLVADFFDQIQFSTFAKQLLFGIKTE
binds: [1] | [2] | [3]

Reference: publication doi:10.1101/2022.12.16.520805
